Reference: PMC8552907
No constants are given. Whether binding was seen depends on the method and setting. In cells and extracts the contact can be indirect. Some binding calls cover weakened binding; strength is not graded here.

Tests used:
Assay in all cases: co-IP
[1] = target: Strep-HA-tagged DDX39B (human) (UniProt Q13838)
[2] = target: Strep-HA-tagged SARS-CoV-2 NSP13 (SARS-CoV-2) (UniProt P0DTD1)
[3] = target: Strep-HA-tagged SARS-CoV-2 NSP14 (SARS-CoV-2) (UniProt P0DTD1)

Substance | binding [1] | binding [2] | binding [3]
V5-tagged SARS-CoV-2 NSP6 (from UniProt P0DTD1 3570-3859) | binds |  | 
V5-tagged SARS-CoV-2 NSP13 (from UniProt P0DTD1 5325-5925) | binds |  | 
V5-tagged SARS-CoV-2 NSP14 (from UniProt P0DTD1) | binds |  | 
V5-tagged SARS-CoV-2 NSP5 (from UniProt P0DTD1 3264-3569) | binds |  | 
V5-tagged DDX39B (from UniProt Q13838 1-428) (enzyme) |  | binds | binds
